PubChem BioAssay AID1259405 | NCATS | 2018
In all, the deposit lists about 50,000 reagents; shown is an unselected part. About 4,000 of them (8%) were called active. 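Mouse siRNA library applied to hamster cells; one well for each siRNA.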 Reagents against one gene are numbered here.

Screen: 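Silenced genes that increase secreted GFP made by CHO cells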 (primary screen)
Cell system: Chinese hamster CHO-K1 ovary cells with stable secreted eGFP expression
Reagents: single siRNA against mouse genes, 0.8 pmol siRNA per well (2 µl of 400 nM stock)
Time to read-out: 3 days
Detection: 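Percent of the per-plate non-targeting control median for intracellular GFP per well by laser scanning cytometry and for cell viability by ATP luminescence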
Direction: GFP, % of control: higher = more GFP per well, higher productivity; viability (ATP), % of control: higher = more viable cells (more ATP)
Rule for the call: 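a knock-down is called active if GFP reaches 120% or more of non-targeting control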

Chst14 (carbohydrate sulfotransferase 14) #1 | GFP, % of control: 127; viability (ATP), % of control: 107; Call: active
Chst14 (carbohydrate sulfotransferase 14) #2 | GFP, % of control: 62.1; viability (ATP), % of control: 82.7; Call: inactive
Chst14 (carbohydrate sulfotransferase 14) #3 | GFP, % of control: 94.2; viability (ATP), % of control: 83.9; Call: inactive
Ramac (RNA guanine-7 methyltransferase activating subunit) #1 | GFP, % of control: 80.7; viability (ATP), % of control: 56.3; Call: inactive
Ramac (RNA guanine-7 methyltransferase activating subunit) #2 | GFP, % of control: 84.7; viability (ATP), % of control: 78.5; Call: inactive
Ramac (RNA guanine-7 methyltransferase activating subunit) #3 | GFP, % of control: 54.5; viability (ATP), % of control: 65.4; Call: inactive
Dpy19l1 (dpy-19 like C-mannosyltransferase 1) #1 | GFP, % of control: 77.5; viability (ATP), % of control: 75.5; Call: inactive
Dpy19l1 (dpy-19 like C-mannosyltransferase 1) #2 | GFP, % of control: 78.5; viability (ATP), % of control: 99.2; Call: inactive
Dpy19l1 (dpy-19 like C-mannosyltransferase 1) #3 | GFP, % of control: 133; viability (ATP), % of control: 82.7; Call: active
Lipi (lipase I) #1 | GFP, % of control: 72.1; viability (ATP), % of control: 111; Call: inactive
Lipi (lipase I) #2 | GFP, % of control: 109; viability (ATP), % of control: 131; Call: inactive
Lipi (lipase I) #3 | GFP, % of control: 37.3; viability (ATP), % of control: 64.7; Call: inactive
P4ha1 #1 | GFP, % of control: 71.9; viability (ATP), % of control: 89.1; Call: inactive
P4ha1 #2 | GFP, % of control: 65.1; viability (ATP), % of control: 65.7; Call: inactive
P4ha1 #3 | GFP, % of control: 100; viability (ATP), % of control: 96.7; Call: inactive
Rfx5 (regulatory factor X, 5 (influences HLA class II expression)) #1 | GFP, % of control: 45.2; viability (ATP), % of control: 102; Call: inactive
Rfx5 (regulatory factor X, 5 (influences HLA class II expression)) #2 | GFP, % of control: 117; viability (ATP), % of control: 88.7; Call: inactive
Rfx5 (regulatory factor X, 5 (influences HLA class II expression)) #3 | GFP, % of control: 126; viability (ATP), % of control: 105; Call: active
Aprt (adenine phosphoribosyl transferase) #1 | GFP, % of control: 102; viability (ATP), % of control: 115; Call: inactive
Aprt (adenine phosphoribosyl transferase) #2 | GFP, % of control: 45.6; viability (ATP), % of control: 70; Call: inactive
Lrrc19 (leucine rich repeat containing 19) #1 | GFP, % of control: 26.1; viability (ATP), % of control: 20.2; Call: inactive
Lrrc19 (leucine rich repeat containing 19) #2 | GFP, % of control: 68.5; viability (ATP), % of control: 78.1; Call: inactive
Lrrc19 (leucine rich repeat containing 19) #3 | GFP, % of control: 67.5; viability (ATP), % of control: 68.6; Call: inactive
Lkaaear1 (LKAAEAR motif containing 1 (IKAAEAR murine motif)) #1 | GFP, % of control: 65; viability (ATP), % of control: 63.2; Call: inactive
Lkaaear1 (LKAAEAR motif containing 1 (IKAAEAR murine motif)) #2 | GFP, % of control: 67; viability (ATP), % of control: 71.2; Call: inactive
Lkaaear1 (LKAAEAR motif containing 1 (IKAAEAR murine motif)) #3 | GFP, % of control: 62.1; viability (ATP), % of control: 80.4; Call: inactive
Prss43 (serine protease 43) #1 | GFP, % of control: 136; viability (ATP), % of control: 102; Call: active
Prss43 (serine protease 43) #2 | GFP, % of control: 82.6; viability (ATP), % of control: 95.6; Call: inactive
Prss43 (serine protease 43) #3 | GFP, % of control: 79.6; viability (ATP), % of control: 76.6; Call: inactive
4930433N12Rik (RIKEN cDNA 4930433N12 gene) #1 | GFP, % of control: 73.2; viability (ATP), % of control: 66.3; Call: inactive
4930433N12Rik (RIKEN cDNA 4930433N12 gene) #2 | GFP, % of control: 124; viability (ATP), % of control: 72.8; Call: active
4930433N12Rik (RIKEN cDNA 4930433N12 gene) #3 | GFP, % of control: 107; viability (ATP), % of control: 61.7; Call: inactive
Vmn1r25 (vomeronasal 1 receptor 25) #1 | GFP, % of control: 90.9; viability (ATP), % of control: 37; Call: inactive
Vmn1r25 (vomeronasal 1 receptor 25) #2 | GFP, % of control: 78.4; viability (ATP), % of control: 56.5; Call: inactive
Vmn1r25 (vomeronasal 1 receptor 25) #3 | GFP, % of control: 80; viability (ATP), % of control: 93.2; Call: inactive
Or12j5 (olfactory receptor family 12 subfamily J member 5) #1 | GFP, % of control: 90.1; viability (ATP), % of control: 82; Call: inactive
Or12j5 (olfactory receptor family 12 subfamily J member 5) #2 | GFP, % of control: 123; viability (ATP), % of control: 129; Call: active
Or12j5 (olfactory receptor family 12 subfamily J member 5) #3 | GFP, % of control: 49.9; viability (ATP), % of control: 60.1; Call: inactive
Mettl23 (methyltransferase like 23) #1 | GFP, % of control: 68.8; viability (ATP), % of control: 61.9; Call: inactive
Mettl23 (methyltransferase like 23) #2 | GFP, % of control: 87.5; viability (ATP), % of control: 73.8; Call: inactive
Mettl23 (methyltransferase like 23) #3 | GFP, % of control: 107; viability (ATP), % of control: 53.2; Call: inactive

5 of these entries, reformatted.
Target gene | siRNA no. | GFP, % of control | viability (ATP), % of control | Call
Lkaaear1 (LKAAEAR motif containing 1 (IKAAEAR murine motif)) | 2 | 67 | 71.2 | inactive
Lkaaear1 (LKAAEAR motif containing 1 (IKAAEAR murine motif)) | 3 | 62.1 | 80.4 | inactive
Prss43 (serine protease 43) | 1 | 136 | 102 | active
Prss43 (serine protease 43) | 2 | 82.6 | 95.6 | inactive
Prss43 (serine protease 43) | 3 | 79.6 | 76.6 | inactive
